In article PMC11830799:

Biological target: GST fusion protein of the wild-type carboxyl terminus of MAS (GST-MAS-CT)
Test: pull-down; lysates of COS-7 cells transfected with Flag-MAGI3 pulled down with wild-type GST-MAS-CT or the ETVA mutant, Western blot; only the target purified

- binding: binds
B1: Flag-tagged full-length MAGI3 (protein, UniProt Q5TCQ9 1-1481)
chain: MSKTLKKKKHWLSKVQECAVSWAGPPGDFGAEIRGGAERGEFPYLGRLREEPGGGTCCVVSGKAPSPGDVLLEVNGTPVSGLTNRDTLAVIRHFREPIRLKTVKPGKVINKDLRHYLSLQFQKGSIDHKLQQVIRDNLYLRTIPCTTRAPRDGEVPGVDYNFISVEQFKALEESGALLESGTYDGNFYGTPKPPAEPSPFQPDPVDQVLFDNEFDAESQRKRTTSVSKMERMDSSLPEEEEDEDKEAINGSGNAENRERHSESSDWMKTVPSYNQTNSSMDFRNYMMRDETLEPLPKNWEMAYTDTGMIYFIDHNTKTTTWLDPRLCKKAKAPEDCEDGELPYGWEKIEDPQYGTYYVDHLNQKTQFENPVEEAKRKKQLGQVEIGSSKPDMEKSHFTRDPSQLKGVLVRASLKKSTMGFGFTIIGGDRPDEFLQVKNVLKDGPAAQDGKIAPGDVIVDINGNCVLGHTHADVVQMFQLVPVNQYVNLTLCRGYPLPDDSEDPVVDIVAATPVINGQSLTKGETCMNPQDFKPGAMVLEQNGKSGHTLTGDGLNGPSDASEQRVSMASSGSSQPELVTIPLIKGPKGFGFAIADSPTGQKVKMILDSQWCQGLQKGDIIKEIYHQNVQNLTHLQVVEVLKQFPVGADVPLLILRGGPPSPTKTAKMKTDKKENAGSLEAINEPIPQPMPFPPSIIRSGSPKLDPSEVYLKSKTLYEDKPPNTKDLDVFLRKQESGFGFRVLGGDGPDQSIYIGAIIPLGAAEKDGRLRAADELMCIDGIPVKGKSHKQVLDLMTTAARNGHVLLTVRRKIFYGEKQPEDDSSQAFISTQNGSPRLNRAEVPARPAPQEPYDVVLQRKENEGFGFVILTSKNKPPPGVIPHKIGRVIEGSPADRCGKLKVGDHISAVNGQSIVELSHDNIVQLIKDAGVTVTLTVIAEEEHHGPPSGTNSARQSPALQHRPMGQSQANHIPGDRSALEGEIGKDVSTSYRHSWSDHKHLAQPDTAVISVVGSRHNQNLGCYPVELERGPRGFGFSLRGGKEYNMGLFILRLAEDGPAIKDGRIHVGDQIVEINGEPTQGITHTRAIELIQAGGNKVLLLLRPGTGLIPDHGDWDINNPSSSNVIYDEQSPLPPSSHFASIFEESHVPVIEESLRVQICEKAEELKDIVPEKKSTLNENQPEIKHQSLLQKNVSKRDPPSSHGHSNKKNLLKVENGVTRRGRSVSPKKPASQHSEEHLDKIPSPLKNNPKRRPRDQSLSPSKGENKSCQVSTRAGSGQDQCRKSRGRSASPKKQQKIEGSKAPSNAEAKLLEGKSRRIAGYTGSNAEQIPDGKEKSDVIRKDAKQNQLEKSRTRSPEKKIKRMVEKSLPSKMTNKTTSKEVSENEKGKKVTTGETSSSNDKIGENVQLSEKRLKQEPEEKVVSNKTEDHKGKELEAADKNKETGRFKPESSSPVKKTLITPGPWKVPSGNKVTGTIGMAEKRQ

Results are given in words; binding and its absence hold for the method and conditions named. In cells and extracts the contact can be indirect. Binding calls can cover weak binding; strength is not graded here. Tags and fused reporters may be left off the sequences shown.
